Source: PubChem BioAssay AID1224830 (NIAID, 2016)
The whole screen tested about 18,000 reagents; shown is an unselected part. In the full data, about 2,900 (16%) got an active call. 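Calls are made per well; low scores hint the gene aids the LPS response, high scores that it dampens it.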 Unmarked entries are inactive. Repeated entries: four replicate wells of each siRNA pool.

Aim: 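Genes whose knock-down alters the TNF-alpha reporter response to LPS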 (primary screen)
System: human THP-1 monocytic leukaemia cells, TNF dual-luciferase reporter clone, PMA-differentiated to macrophage-like cells
Knock-down reagent: siRNA pool against human genes, 50 nM
Timing: LPS for 4 h, given about 3 days after siRNA transfection
Treatment: bacterial LPS (TLR4 ligand), 10 ng/ml
Measured: 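Ratio of firefly to renilla light, scaled to the plate median and expressed as a robust z-score per replicate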
Direction: TNF reporter robust z-score: higher = stronger TNF reporter response to LPS
Call rule: 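a well is active when its z-score exceeds 2.8 or falls below -1.5; control wells carry no call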

Which result is listed for HADHB?
TNF reporter robust z-score: -0.39

With HADHB, what does the deposit list?
TNF reporter robust z-score: -0.91

What did the screen give for HADHB?
TNF reporter robust z-score: -1.24

For HADHB, what was measured?
TNF reporter robust z-score: -0.4

With IMPA1, how do the results read?
TNF reporter robust z-score: -1.22

How did the screen score IMPA1?
TNF reporter robust z-score: -0.07

How did the screen score IMPA1?
TNF reporter robust z-score: -0.36

With IMPA1, what does the deposit list?
TNF reporter robust z-score: -0.28

With FN3K, how do the results read?
TNF reporter robust z-score: 0.25

How did the screen score FN3K?
TNF reporter robust z-score: 0.02

With FN3K, what does the deposit list?
TNF reporter robust z-score: -0.28

For FN3K, what was measured?
TNF reporter robust z-score: 1.22

Which result is listed for DSPP?
TNF reporter robust z-score: 0.15

What did the screen give for DSPP?
TNF reporter robust z-score: -0.87

For DSPP, how do the results read?
TNF reporter robust z-score: -0.3

For DSPP, what does the deposit list?
TNF reporter robust z-score: 0.02

What is on record for NEU1?
TNF reporter robust z-score: 0.8

With NEU1, what was measured?
TNF reporter robust z-score: 1.49

What did the screen give for NEU1?
TNF reporter robust z-score: 0.87

What did the screen give for NEU1?
TNF reporter robust z-score: 1.81

What is on record for PER1?
TNF reporter robust z-score: 1.73

With PER1, what does the deposit list?
TNF reporter robust z-score: 0.55

What did the screen give for PER1?
TNF reporter robust z-score: 0.36

What is on record for PER1?
TNF reporter robust z-score: 1.26

Sorted by “TNF reporter robust z-score” (highest first): 4 of the entries above
NEU1: TNF reporter robust z-score = 1.81
PER1: TNF reporter robust z-score = 1.73
NEU1: TNF reporter robust z-score = 0.87
PER1: TNF reporter robust z-score = 0.55

Additional entries:
With PSME1, what was measured?
TNF reporter robust z-score: 1.04

What did the screen give for PSME1?
TNF reporter robust z-score: 1.82

How did the screen score PSME1?
TNF reporter robust z-score: -0.81

With PSME1, how do the results read?
TNF reporter robust z-score: -0.76

For H2BC8, what was measured?
TNF reporter robust z-score: 0

What did the screen give for H2BC8?
TNF reporter robust z-score: 0.82

How did the screen score H2BC8?
TNF reporter robust z-score: -1.01

Which result is listed for H2BC8?
TNF reporter robust z-score: 0.55

With RCC2, what was measured?
TNF reporter robust z-score: 0.55

What did the screen give for RCC2?
TNF reporter robust z-score: 1.65

What is on record for RCC2?
TNF reporter robust z-score: -0.07

Which result is listed for RCC2?
TNF reporter robust z-score: 1.81

With MAT2B, what was measured?
TNF reporter robust z-score: 0.34

For MAT2B, what was measured?
TNF reporter robust z-score: 2.5

For MAT2B, what was measured?
TNF reporter robust z-score: 1.15

What is on record for MAT2B?
TNF reporter robust z-score: 0.85

For NXNL1, what was measured?
TNF reporter robust z-score: 3.62 (active)

What is on record for NXNL1?
TNF reporter robust z-score: 2.78

For NXNL1, what was measured?
TNF reporter robust z-score: 0.04

With NXNL1, what was measured?
TNF reporter robust z-score: 2.47

For WEE1, what was measured?
TNF reporter robust z-score: 1.02

For WEE1, how do the results read?
TNF reporter robust z-score: 0.83

For WEE1, what was measured?
TNF reporter robust z-score: 0.28

Which result is listed for WEE1?
TNF reporter robust z-score: -1.07
